PubChem BioAssay AID504764 – Drosophila RNAi Screening Center | 2011
Purpose: 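Genome-wide screen for regulators of Notch-driven gene expression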 (primary screen). Cells: Drosophila Kc167 cells. Reagents: long dsRNA against Drosophila genes. Duration: about 5 days (4 days dsRNA, then 24 h after transfection). Treatment: transfection of constitutively active membrane-tethered Notch lacking the extracellular domain, read 24 h later. Measurement: 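Light from a Notch-responsive E(spl)m3 luciferase reporter under active Notch, with control-promoter and no-Notch reporter wells to normalise; raw counts from paired wells a and b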. Reading the numbers: induced reporter light, run 1, well a and induced reporter light, run 1, well b: higher = more light from the Notch target reporter with active Notch; control promoter light, run 1, well a and control promoter light, run 1, well b: higher = more light from the viral control promoter (cell number, transfection, viability); uninduced reporter light, run 1, well a: higher = more light from the Notch target reporter without active Notch. Active means: 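Hit if the duplicate-averaged log2 ratio of induced to control-promoter light gives a plate-wise z beyond ±2, or induced to uninduced beyond ±1.8; weak-control or discordant-duplicate wells dropped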. Calls: active = modifier hit (raised or lowered Notch signal); inactive = not a hit.
The deposit covers about 22,000 reagents; below is a random part of those that have a named target and a result. Over the whole deposit, 403 (1.9%) got an active call. 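Unnormalised raw counts per well; ratio z-scores behind the hit calls and whether each hit raises or lowers signal are not deposited.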 Names joined by + are all predicted targets of the reagent. Not stated in the record: the amount of reagent.

no.	target	DRSC id	induced reporter light, run 1, well a	induced reporter light, run 1, well b	control promoter light, run 1, well a	control promoter light, run 1, well b	uninduced reporter light, run 1, well a	Call
1	CG3078	DRSC18531	62065	71815	56490	70130	7630	inactive
2	mip120	DRSC06960	56090	64120	97495	85955	5965	inactive
3	CG14683	DRSC17035	2.09e5	1.64e5	1.29e5	1.20e5	12760	inactive
4	dbo	DRSC11339	1.81e5	1.42e5	1.87e5	1.84e5	8685	inactive
5	l(3)mbn	DRSC08793	2.31e5	2.09e5	2.44e5	2.55e5	15555	inactive
6	CG15279	DRSC01935	2.18e5	2.57e5	2.10e5	2.03e5	17600	inactive
7	ETH	DRSC04612	1.92e5	1.49e5	2.07e5	1.70e5	11710	inactive
8	CG14072	DRSC02375	1.46e5	1.41e5	78630	1.01e5	19120	inactive
9	CG18428	DRSC15326	2.03e5	1.92e5	2.17e5	2.03e5	13770	inactive
10	CG34150	DRSC13689	1.64e5	1.69e5	1.91e5	1.89e5	14070	inactive
11	CG2278	DRSC18226	1.59e5	1.57e5	2.48e5	2.25e5	8980	inactive
12	gce	DRSC19613	48740	54360	77525	73000	8185	inactive
13	gce	DRSC19974	59865	53705	93300	62615	11440	inactive
14	ATPsynepsilonL	DRSC14548	77480	1.12e5	1.02e5	81045	2930	inactive
15	Prat2	DRSC09692	86145	1.12e5	76155	33045	7710	inactive
16	CG31809	DRSC01561	79855	60605	69205	72135	5150	inactive
17	lush	DRSC11364	1.77e5	1.30e5	1.11e5	1.16e5	13520	inactive
18	Fst	DRSC16491	1.60e5	1.42e5	1.11e5	1.10e5	11590	inactive
19	CG9287	DRSC03186	1.81e5	2.11e5	97800	1.22e5	21070	inactive
20	CG9287	DRSC22790						active
21	CadN2 + CG42830	DRSC03062	1.21e5	97320	1.11e5	1.44e5	10600	inactive
22	CadN2 + CG42830	DRSC03063	1.08e5	1.24e5	1.10e5	1.13e5	8185	inactive
23	CadN2 + CG42830	DRSC03064	1.26e5	1.40e5	1.26e5	1.51e5	11390	inactive
24	CG13800 (retired record)	DRSC08334	1.08e5	96660	1.76e5	1.32e5	6790	inactive
25	CG13043	DRSC09924	1.19e5	1.42e5	1.52e5	1.29e5	8800	inactive
26	Pka-C2	DRSC16790	66065	59445	1.28e5	1.27e5	6230	inactive
27	mol	DRSC01431	54880	50485	65515	63445	5080	inactive
28	mol	DRSC01912	2.37e5	2.22e5	1.84e5	1.92e5	17355	inactive
29	mol	DRSC02479	92675	1.23e5	1.07e5	1.18e5	7945	inactive

The list goes on; the last 4 above are carried over.
no.	target	DRSC id	induced reporter light, run 1, well a	induced reporter light, run 1, well b	control promoter light, run 1, well a	control promoter light, run 1, well b	uninduced reporter light, run 1, well a	Call
26	Pka-C2	DRSC16790	66065	59445	1.28e5	1.27e5	6230	inactive
27	mol	DRSC01431	54880	50485	65515	63445	5080	inactive
28	mol	DRSC01912	2.37e5	2.22e5	1.84e5	1.92e5	17355	inactive
29	mol	DRSC02479	92675	1.23e5	1.07e5	1.18e5	7945	inactive
30	CG14252	DRSC14747	1.18e5	1.28e5	1.83e5	1.55e5	9760	inactive
31	CG13337	DRSC06371	1.09e5	1.12e5	1.47e5	1.38e5	8892	inactive
32	PH4alphaEFB	DRSC14473	1.69e5	1.79e5	2.06e5	2.73e5	13232	inactive
33	PH4alphaEFB	DRSC14950	1.05e5	1.19e5	1.47e5	1.79e5	10170	inactive
34	CG8701	DRSC07237	1.75e5	2.11e5	2.00e5	1.76e5	16125	inactive
35	CG30105	DRSC05668	17070	18310	22460	24445	5790	inactive
36	HP1D3csd	DRSC19548	69580	81965	80270	98750	10245	inactive
37	CG15894	DRSC18098	1.37e5	1.30e5	2.37e5	2.64e5	10870	inactive
38	CG15894	DRSC18099	15550	19035	24678	29050	4090	inactive
39	Cht2	DRSC08650	87020	83595	1.44e5	1.68e5	7070	inactive
40	Larp7	DRSC18798	58920	69955	77970	1.01e5	5155	inactive
41	CG34348	DRSC19425	1.38e5	1.11e5	1.31e5	1.50e5	7840	inactive
42	CG34348	DRSC19644	91200	97945	1.16e5	1.41e5	8180	inactive
43	Prosbeta5R1	DRSC04581	2.40e5	2.51e5	1.97e5	1.79e5	17440	inactive
44	Rga	DRSC12364	91570	1.14e5	87730	73715	6520	inactive
45	Traf4	DRSC00445	1.62e5	1.40e5	1.42e5	1.31e5	9475	inactive
46	Traf4	DRSC00794	1.70e5	2.00e5	1.68e5	1.92e5	12380	inactive
47	Blm + CG14721	DRSC14943	62260	96900	66215	49750	2855	inactive
48	ect	DRSC10675	2.40e5	2.07e5	3.26e5	1.96e5	8620	inactive
49	ect	DRSC11343	1.49e5	1.41e5	1.35e5	1.53e5	9255	inactive
50	CG31229	DRSC13309	54805	55760	55815	62350	6335	inactive
51	CG11226	DRSC11639	1.26e5	1.04e5	1.02e5	1.10e5	7600	inactive
52	Ufd1	DRSC10607	1.05e5	1.01e5	67995	29440	7390	inactive
53	sowah	DRSC09186	2.06e5	2.46e5	2.45e5	2.25e5	15310	inactive
54	sowah	DRSC09758	80220	90790	62690	32595	9395	inactive
55	CG14823	DRSC10194	93175	98655	55620	24625	10640	inactive
56	slv	DRSC07685	2.21e5	2.09e5	2.55e5	2.50e5	17380	inactive
57	CG11629	DRSC03695	49325	56680	55425	45300	5042	inactive
58	Loxl1	DRSC14303	1.42e5	1.46e5	2.33e5	2.82e5	10938	inactive
59	SERCA	DRSC04600	1.67e5	1.72e5	1.34e5	1.37e5	11350	inactive
60	CG32237	DRSC08312	2.07e5	1.56e5	1.76e5	1.51e5	8050	inactive
61	CG32237	DRSC08315	1.54e5	1.74e5	1.85e5	2.17e5	6725	inactive
62	Sod3	DRSC07324	1.25e5	1.28e5	1.24e5	1.12e5	11995	inactive
63	Cad89D	DRSC15022	2.15e5	2.22e5	2.59e5	2.62e5	23555	inactive
64	idc	DRSC15680	1.45e5	1.69e5	1.76e5	1.88e5	17480	inactive
